Data on one molecule can be found in article PMC11471602.

This experiment deals with T1, PRG5-eGFP (plasticity-related gene 5 fused to enhanced green fluorescent protein) (mouse) (UniProt Q8BJ52).
T1 sequence: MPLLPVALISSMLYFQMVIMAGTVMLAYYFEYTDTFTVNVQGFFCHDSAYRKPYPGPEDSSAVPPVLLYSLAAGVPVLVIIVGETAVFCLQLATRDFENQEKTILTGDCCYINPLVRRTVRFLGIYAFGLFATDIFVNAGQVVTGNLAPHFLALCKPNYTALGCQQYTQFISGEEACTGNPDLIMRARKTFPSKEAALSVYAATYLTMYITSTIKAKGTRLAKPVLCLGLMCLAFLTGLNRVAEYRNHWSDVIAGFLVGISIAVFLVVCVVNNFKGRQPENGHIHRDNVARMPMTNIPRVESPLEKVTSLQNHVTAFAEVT
The experiment is described as follows: co-IP; HEK293T co-transfected, lysed 19 h after transfection in 150 mM NaCl, 1% Ecosurf EH-9, 50 mM Tris HCl pH 8.0 with protease inhibitors; eGFP fusion proteins isolated with µMACS GFP beads; blot with anti-FLAG.

No constants are given. Whether binding was seen depends on the method and setting. Binding seen in cells or lysates may run through a third protein. Some results given as binding are weak or reduced against the parent protein; the word gives no strength. Sequences can lack the tags named with a protein.

B1: PRG5-FLAG (protein, UniProt Q8BJ52 1-321)
chain: MPLLPVALISSMLYFQMVIMAGTVMLAYYFEYTDTFTVNVQGFFCHDSAYRKPYPGPEDSSAVPPVLLYSLAAGVPVLVIIVGETAVFCLQLATRDFENQEKTILTGDCCYINPLVRRTVRFLGIYAFGLFATDIFVNAGQVVTGNLAPHFLALCKPNYTALGCQQYTQFISGEEACTGNPDLIMRARKTFPSKEAALSVYAATYLTMYITSTIKAKGTRLAKPVLCLGLMCLAFLTGLNRVAEYRNHWSDVIAGFLVGISIAVFLVVCVVNNFKGRQPENGHIHRDNVARMPMTNIPRVESPLEKVTSLQNHVTAFAEVT
For B1, the binding entry is recorded as “binds”.
